This experiment concerns the target human ApoE3 in the cortex of hAPOE3-TR mice (human) (UniProt P02649). Kind of experiment: co-IP; mouse brain cortex (hAPOE2-TR or hAPOE3-TR mice); rProtein A/G Magnetic IP/Co-IP Kit; 10 ug of APOE antibody or IgG.

Amino acid sequences for entries named in this document (tags omitted). Residues count along the entry.
UniProt P02649, residues 19-317: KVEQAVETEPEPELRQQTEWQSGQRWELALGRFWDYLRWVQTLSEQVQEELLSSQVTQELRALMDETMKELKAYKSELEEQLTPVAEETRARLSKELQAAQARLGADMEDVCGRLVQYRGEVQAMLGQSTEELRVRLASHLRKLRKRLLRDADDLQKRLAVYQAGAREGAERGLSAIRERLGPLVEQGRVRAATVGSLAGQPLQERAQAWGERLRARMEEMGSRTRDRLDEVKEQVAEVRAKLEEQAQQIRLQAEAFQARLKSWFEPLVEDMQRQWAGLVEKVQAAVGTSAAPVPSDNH

Binding data for one molecule are collected here from paper PMC11170814.

These are yes or no findings as the source states them, for the method shown. In cells and extracts the contact can be indirect. Some results given as binding are weak or reduced against the parent protein; the word gives no strength.

B1: ERRα of mouse brain cortex (protein, UniProt O08580 1-422)
chain: MSSQVVGIEPLYIKAEPASPDSPKGSSETETEPPVTLASGPAPARCLPGHKEEEDGEGAGSGEQGSGKLVLSSLPKRLCLVCGDVASGYHYGVASCEACKAFFKRTIQGSIEYSCPASNECEITKRRRKACQACRFTKCLRVGMLKEGVRLDRVRGGRQKYKRRPEVDPLPFPGPFPAGPLAVAGGPRKTAPVNALVSHLLVVEPEKLYAMPDPASPDGHLPAVATLCDLFDREIVVTISWAKSIPGFSSLSLSDQMSVLQSVWMEVLVLGVAQRSLPLQDELAFAEDLVLDEEGARAAGLGDLGAALLQLVRRLQALRLEREEYVLLKALALANSDSVHIEDAEAVEQLREALHEALLEYEAGRAGPGGGAERRRAGRLLLTLPLLRQTAGKVLAHFYGVKLEGKVPMHKLFLEMLEAMMD
For the molecule B1, the binding result was “binds”.
